Laboratory results from publication PMC6469084.
These are yes or no findings as the source states them, for the method shown. Binding seen in cells or lysates may run through a third protein. Some results given as binding are weak or reduced against the parent protein; the word gives no strength.

Amino acid sequences for entries named in this document (tags omitted).
UniProt P35222: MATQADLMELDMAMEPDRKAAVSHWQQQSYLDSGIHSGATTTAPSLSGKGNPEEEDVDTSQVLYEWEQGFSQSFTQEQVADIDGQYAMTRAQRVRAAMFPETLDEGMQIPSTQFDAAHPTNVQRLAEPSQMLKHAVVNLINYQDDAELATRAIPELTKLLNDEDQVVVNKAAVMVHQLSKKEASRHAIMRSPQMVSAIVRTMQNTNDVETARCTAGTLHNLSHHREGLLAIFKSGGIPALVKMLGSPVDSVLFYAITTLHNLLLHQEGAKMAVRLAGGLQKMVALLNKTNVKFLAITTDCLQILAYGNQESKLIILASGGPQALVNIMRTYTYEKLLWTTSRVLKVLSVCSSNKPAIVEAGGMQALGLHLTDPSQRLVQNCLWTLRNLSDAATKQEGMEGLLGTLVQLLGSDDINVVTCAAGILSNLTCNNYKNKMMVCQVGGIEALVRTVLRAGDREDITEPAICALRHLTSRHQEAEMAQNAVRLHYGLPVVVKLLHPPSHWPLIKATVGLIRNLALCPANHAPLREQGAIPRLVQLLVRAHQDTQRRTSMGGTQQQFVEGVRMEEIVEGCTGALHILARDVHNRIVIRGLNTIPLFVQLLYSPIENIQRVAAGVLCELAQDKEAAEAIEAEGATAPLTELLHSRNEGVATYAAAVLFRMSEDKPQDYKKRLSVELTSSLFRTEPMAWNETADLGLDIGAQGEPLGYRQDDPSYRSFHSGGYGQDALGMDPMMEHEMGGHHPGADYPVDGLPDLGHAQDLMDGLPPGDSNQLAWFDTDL

Key:
[1] = molecular target: T1, Ubiquitin-specific protease 6 N-terminal-like protein (USP6NL) (human (endogenous in HCT116)) (UniProt Q92738); experiment: co-IP; 100 μg total protein of the lysis supernatant of HCT116 cells transfected with siUSP6NL; protein G-Agarose beads; immunoprecipitated with anti-USP6NL, anti-β-catenin or control IgG overnight at 4 °C; immunoblot for USP6NL and β-catenin
T1 sequence: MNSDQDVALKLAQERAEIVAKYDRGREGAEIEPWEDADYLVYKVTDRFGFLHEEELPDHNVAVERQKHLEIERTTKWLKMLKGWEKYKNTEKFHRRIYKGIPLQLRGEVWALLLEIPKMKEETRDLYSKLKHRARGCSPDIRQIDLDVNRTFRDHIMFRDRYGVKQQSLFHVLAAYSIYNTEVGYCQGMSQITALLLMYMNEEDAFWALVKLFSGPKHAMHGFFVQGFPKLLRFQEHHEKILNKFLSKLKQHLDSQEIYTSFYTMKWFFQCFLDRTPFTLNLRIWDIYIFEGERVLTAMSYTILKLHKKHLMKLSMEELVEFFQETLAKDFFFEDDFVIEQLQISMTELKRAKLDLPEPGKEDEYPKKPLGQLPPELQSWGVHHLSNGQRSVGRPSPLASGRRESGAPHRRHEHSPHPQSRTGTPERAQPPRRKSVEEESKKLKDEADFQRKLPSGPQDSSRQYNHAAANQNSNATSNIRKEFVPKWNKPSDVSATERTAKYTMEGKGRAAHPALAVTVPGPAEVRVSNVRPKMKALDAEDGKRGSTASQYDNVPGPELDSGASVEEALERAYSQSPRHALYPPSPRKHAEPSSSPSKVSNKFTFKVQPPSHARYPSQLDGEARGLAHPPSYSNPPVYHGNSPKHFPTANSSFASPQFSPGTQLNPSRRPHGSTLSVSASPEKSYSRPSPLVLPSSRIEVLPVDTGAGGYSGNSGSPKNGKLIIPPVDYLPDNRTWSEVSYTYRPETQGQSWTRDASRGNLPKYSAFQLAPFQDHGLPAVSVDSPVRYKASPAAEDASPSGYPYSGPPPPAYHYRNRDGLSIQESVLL

[2] = molecular target: β-catenin (human (endogenous in HCT116)) (UniProt P35222); experiment: as above

Molecule | binding [1] | binding [2]
β-catenin (from UniProt P35222 1-781) | binds | –
Ubiquitin-specific protease 6 N-terminal-like protein (USP6NL) (protein, UniProt Q92738 1-828) MNSDQDVALKLAQERAEIVAKYDRGREGAEIEPWEDADYLVYKVTDRFGFLHEEELPDHNVAVERQKHLEIERTTKWLKMLKGWEKYKNTEKFHRRIYKGIPLQLRGEVWALLLEIPKMKEETRDLYSKLKHRARGCSPDIRQIDLDVNRTFRDHIMFRDRYGVKQQSLFHVLAAYSIYNTEVGYCQGMSQITALLLMYMNEEDAFWALVKLFSGPKHAMHGFFVQGFPKLLRFQEHHEKILNKFLSKLKQHLDSQEIYTSFYTMKWFFQCFLDRTPFTLNLRIWDIYIFEGERVLTAMSYTILKLHKKHLMKLSMEELVEFFQETLAKDFFFEDDFVIEQLQISMTELKRAKLDLPEPGKEDEYPKKPLGQLPPELQSWGVHHLSNGQRSVGRPSPLASGRRESGAPHRRHEHSPHPQSRTGTPERAQPPRRKSVEEESKKLKDEADFQRKLPSGPQDSSRQYNHAAANQNSNATSNIRKEFVPKWNKPSDVSATERTAKYTMEGKGRAAHPALAVTVPGPAEVRVSNVRPKMKALDAEDGKRGSTASQYDNVPGPELDSGASVEEALERAYSQSPRHALYPPSPRKHAEPSSSPSKVSNKFTFKVQPPSHARYPSQLDGEARGLAHPPSYSNPPVYHGNSPKHFPTANSSFASPQFSPGTQLNPSRRPHGSTLSVSASPEKSYSRPSPLVLPSSRIEVLPVDTGAGGYSGNSGSPKNGKLIIPPVDYLPDNRTWSEVSYTYRPETQGQSWTRDASRGNLPKYSAFQLAPFQDHGLPAVSVDSPVRYKASPAAEDASPSGYPYSGPPPPAYHYRNRDGLSIQESVLL | – | binds
